# Experimental data: PubChem BioAssay AID192 (DTP/NCI, 2004)
# The list is a part of this screen's results and no random one: it is rich in T/C values a quarter to a half above the control, in often repeated tests (any T/C) and in doses without a T/C. Further doses and runs are listed elsewhere. T/C gives the treated animals as a percentage of the vehicle group. Some entries give survivors of the animals treated and no T/C: the source holds a T/C of zero for them, seemingly a mark for toxic or unscored doses. Some doses without a T/C left all or most animals alive at the check, yet need not have been tolerated: survival well below the control is almost never listed, so the zero probably covers shortened survival too. Counts of survivors are from the toxicity check (mostly the fifth day) where no day follows; animals may have died later. Schedule codes are those of the source, taken here to give the interval after Q, in days (D) or hours (H), and the number of doses after X. Some entries were tested several times; the values are given in rising order. For survival time, the PubChem record calls one and a half times the control and up active, and a quarter to a half above the control has no call in these data; cut-offs in other NCI protocols can differ. Brackets with × count equal records among those shown. Numbered stars: 1 amine (or outer) side, 2 acyl side, 3 side chain; on linkers, the order of the positions; unused ones are H or OH. Bridge positions count the residues as written; N and C are the ends. Square brackets hold non-standard residues; d marks the D form. Peptide text beside a SMILES is read from it. I, II: the chains in the order shown. Actinocin(9to1) = Cc1c2oc3c(C)ccc(C(=O)[*:1])c3nc-2c(C(=O)[*:2])c(N)c1=O; NMeV = CN[CH](C(=O)O)C(C)C; Aze = O=C(O)[CH]1CCN1; Sar = CNCC(=O)O
# Test system: BDF1 mice, B16 melanoma ip, median survival T/C
# Experiment: NCI In Vivo Anticancer Drug Screen. Data for tumor model B16 Melanoma (intraperitoneal) in B6D2F1 (BDF1) mice
# Conditions: T/C endpoint: median survival time, higher T/C = longer survival
# In short: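 Antitumor activity is assessed in mice bearing a transplanted tumor, with survival or tumor size compared against vehicle-dosed controls and expressed as T/C.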
# [1] = dose: 100.0 mg/kg/injection, schedule: Q01DX009 (ip), vehicle: Klucel (hydroxypropylcellulose) (HPC)
# [2] = dose: 200.0 mg/kg/injection, schedule: Q01DX009 (ip), vehicle: Klucel (hydroxypropylcellulose) (HPC)
# [3] = dose: 400.0 mg/kg/injection, schedule: Q01DX009 (ip), vehicle: Klucel (hydroxypropylcellulose) (HPC)
# [4] = dose: 50.0 mg/kg/injection, schedule: Q01DX009 (ip), vehicle: saline
structure (smiles),measurement,setting,value
C=CCN1CCC(C(=O)CC)(c2ccccc2)CC1,survivor count,[1],10 of 10
same,survivor count,[2],0 of 10
same,survivor count,[3],0 of 10
COc1cc2cc[n+]3c(C)c4cc5c(cc4cc3c2cc1OC)OCO5 (tested in a mixture with another compound),survivor count,"dose: 25.0 mg/kg/injection, schedule: Q01DX009 (ip), vehicle: saline",10 of 10
same,survivor count,[4],9 of 10
O=C(NC(CSC(=O)OCc1ccccc1)C(=O)Oc1ccc([N+](=O)[O-])cc1)OCc1ccccc1 (stereo not drawn),survivor count,[1],9 of 10
CCCCCCCCCCCCCCCCCCOCC(COP(=O)([O-])OCC[N+](C)(C)C)OC (stereo not drawn),survivor count,[4],10 of 10
CC(=N\[O-])/C(C)=N/O.CC(=N\[O-])/C(C)=N/O.CC(=O)[O-].CC(=O)[O-].O.[Rh+2].[Rh+2],T/C,"dose: 3.13 mg/kg/injection, schedule: Q01DX009 (ip), vehicle: saline",125 % of control
same,T/C,"dose: 6.25 mg/kg/injection, schedule: Q01DX009 (ip), vehicle: saline",133 % of control
same,T/C,"dose: 12.5 mg/kg/injection, schedule: Q01DX009 (ip), vehicle: saline",125 % of control
COc1ccccc1N1CCN(CCc2c[nH]c3cc4c(cc23)OCO4)CC1,survivor count,"dose: 3.12 mg/kg/injection, schedule: Q01DX009 (ip), vehicle: Klucel (hydroxypropylcellulose) (HPC)",10 of 10
same,survivor count,"dose: 12.5 mg/kg/injection, schedule: Q01DX009 (ip), vehicle: Klucel (hydroxypropylcellulose) (HPC)",10 of 10
same,survivor count,"dose: 25.0 mg/kg/injection, schedule: Q01DX009 (ip), vehicle: Klucel (hydroxypropylcellulose) (HPC)",0 of 10
"Cc1c2oc3c(C)ccc(C(=O)NC4C(=O)NC(C(C)C)C(=O)N5CCC5C(=O)N(C)CC(=O)N(C)C(C(C)C)C(=O)OC4C)c3nc-2c(C(=O)NC2C(=O)NC(C(C)C)C(=O)N3CCC3C(=O)N(C)CC(=O)N(C)C(C(C)C)C(=O)OC2C)c(N)c1=O (stereo not drawn) (I: TV[Aze][Sar][NMeV] / II: TV[Aze][Sar][NMeV]; ester I:1-I:C, II:1-II:C; linker I:N-II:N via Actinocin(9to1); configuration not given here)",T/C,"dose: 0.3 mg/kg/injection, schedule: Q04DX003 (ip), vehicle: saline + alcohol",143 % of control
same,T/C,"dose: 0.45 mg/kg/injection, schedule: Q04DX003 (ip), vehicle: saline + alcohol",134 % of control
same,survivor count,"dose: 0.9 mg/kg/injection, schedule: Q04DX003 (ip), vehicle: saline + alcohol",10 of 10
same,survivor count,"dose: 1.2 mg/kg/injection, schedule: Q04DX003 (ip), vehicle: saline + alcohol",9 of 10 and 10 of 10
same,T/C,"dose: 75.0 micrograms/kg/injection, schedule: Q01DX009 (ip), vehicle: saline + alcohol",136 % of control
same,survivor count,"dose: 200.0 micrograms/kg/injection, schedule: Q01DX009 (ip), vehicle: saline + alcohol",10 of 10
same,survivor count,"dose: 300.0 micrograms/kg/injection, schedule: Q01DX009 (ip), vehicle: saline + alcohol",10 of 10
COc1ccc2c(c1)CCC(c1ccccc1)=C2c1ccc(OCCN2CCCC2)cc1,survivor count,"dose: 48.0 mg/kg/injection, schedule: Q01DX009 (ip), vehicle: saline sonified",5 of 6
CC(=O)CC(=O)Oc1ccccc1OC(C)=O,survivor count,[2],8 of 10
Cc1ccc(NS(=O)(=O)c2ccccc2)cc1Cl,survivor count,[1],10 of 10
O=S(=O)(NN=C(c1ccccc1)c1ccccc1)c1ccccc1,survivor count,"dose: 50.0 mg/kg/injection, schedule: Q01DX009 (ip), vehicle: Klucel (hydroxypropylcellulose) (HPC)",10 of 10
same,survivor count,[1],10 of 10
same,survivor count,[2],10 of 10
same,survivor count,[3],10 of 10
CC1(O)C=CC(=O)C=C1,survivor count,"dose: 100.0 mg/kg/injection, schedule: Q01DX009 (ip), vehicle: water",0 of 10
CC(=O)NC1=C(N2CC2)C(=O)C(NC(C)=O)=C(N2CC2)C1=O,T/C,"dose: 0.25 mg/kg/injection, schedule: Q01DX009 (ip), vehicle: saline",128 % of control
same,T/C,"dose: 0.5 mg/kg/injection, schedule: Q01DX005 (ip), vehicle: saline with Tween-80",125 % of control
same,T/C,"dose: 0.5 mg/kg/injection, schedule: Q01DX009 (ip), vehicle: saline with Tween-80",125 % of control
same,survivor count,"dose: 0.5 mg/kg/injection, schedule: Q01DX009 (ip), vehicle: saline",8 of 10
same,T/C,"dose: 1.0 mg/kg/injection, schedule: Q01DX009 (ip), vehicle: saline with Tween-80",129 and 131 % of control
same,survivor count,"dose: 1.0 mg/kg/injection, schedule: Q01DX009 (ip), vehicle: saline",6 of 10
same,T/C,"dose: 2.0 mg/kg/injection, schedule: Q01DX005 (ip), vehicle: saline with Tween-80",140 % of control (2×)
same,survivor count,"dose: 2.0 mg/kg/injection, schedule: Q01DX009 (ip), vehicle: saline with Tween-80",10 of 10
same,survivor count,"dose: 2.0 mg/kg/injection, schedule: Q01DX009 (ip), vehicle: saline",3 of 10
same,survivor count,"dose: 4.0 mg/kg/injection, schedule: Q01DX005 (ip), vehicle: saline with Tween-80",10 of 10
